According to PMC2712759, “Hsp70 Chaperones and Type I PRMTs Are Sequestered at Intranuclear Inclusions Caused by Polyalanine Expansions in PABPN1” (PLoS ONE, 2009):

What was measured:
[1] = target: T1, expanded human PABPN1, tract of 17 alanine residues, His-tagged, biotinylated (human) (UniProt Q86U42); assay: pull-down; biotinylated His-PABPN1 (2 µg) on streptavidin-agarose beads, incubated with RNase A-treated extracts of C2 myoblasts and myotubes, 4 h at 4°C, 20 mM Tris pH 8.0, 200 mM KCl, 10% glycerol; bound proteins detected by immunoblot; only the target purified
T1 sequence (chain, biotin (EZ-Link PEO-Maleimide Activated Biotin)): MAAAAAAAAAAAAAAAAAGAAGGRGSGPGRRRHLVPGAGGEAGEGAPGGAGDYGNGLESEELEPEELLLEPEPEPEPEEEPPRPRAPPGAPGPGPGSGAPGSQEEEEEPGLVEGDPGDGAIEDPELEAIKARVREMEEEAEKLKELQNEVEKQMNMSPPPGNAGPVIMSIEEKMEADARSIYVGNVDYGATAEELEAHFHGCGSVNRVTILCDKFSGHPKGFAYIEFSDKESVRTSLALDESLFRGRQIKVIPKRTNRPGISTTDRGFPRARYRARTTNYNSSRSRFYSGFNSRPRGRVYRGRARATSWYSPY

[2] = target: T2, normal human PABPN1 (poly(A)-binding protein nuclear 1), homopolymer of 10 alanine residues, His-tagged, biotinylated (human) (UniProt Q86U42); assay: as above
T2 sequence (chain, biotin (EZ-Link PEO-Maleimide Activated Biotin)): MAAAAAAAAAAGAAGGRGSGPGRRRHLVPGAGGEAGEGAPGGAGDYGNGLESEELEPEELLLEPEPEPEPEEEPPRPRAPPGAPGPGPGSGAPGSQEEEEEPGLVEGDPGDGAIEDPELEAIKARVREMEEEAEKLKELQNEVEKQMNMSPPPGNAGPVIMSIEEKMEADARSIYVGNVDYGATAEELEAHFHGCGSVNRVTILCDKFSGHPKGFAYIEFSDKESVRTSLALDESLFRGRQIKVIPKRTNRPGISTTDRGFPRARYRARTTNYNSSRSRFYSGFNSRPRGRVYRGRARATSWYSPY

For “Hsp70 (as detected by anti-Hsp70 immunoblot) (mouse (endogenous in C2 cells))”, the binding [1] was “binds” and the binding [2] was “binds”.

No constants are given. Whether binding was seen depends on the method and setting. In cells and extracts the contact can be indirect. Binding can be weak; no strength is given. Sequences can lack the tags named with a protein.
